Reference: patent US20090012067A1, “Modulation of Hypothalamic Atp-Sensitive Potassium Channels” (priority 2005, published 2009)

Test system: hepatic glucose production
Test: pancreatic-hyperinsulinemic clamp (insulin 3 mU/kg·min) in SHAM and HV rats
Format: in vivo, Sprague-Dawley rats
Details: for FFA: Clamp, systemic insulin 3 mU/Kg·min; for ^3H-Glucose Plasma SA / ^3H-UDPglucose Liver SA / ^14C-PEP / ^14C-UDP glucose: systemic insulin (3 mU)
Experimental: Panel A is a schematic representation of the pancreatic-hyperinsulinemic clamp procedure. At t=120 an infusion of labeled glucose was initiated and maintained for the remaining 4 hours of the study and a pancreatic hyperinsulinemic clamp was initiated at t=240 min and lasted for 2 hours. […] The figure is a longitudinal view of a rat brain, with olfactory bulb at the anterior end on the left and the caudal hindbrain on the right.
In vivo studies. For the studies in rats, the metabolic experiments were performed ˜3 weeks after stereotaxic surgery following complete recovery from the operation (FIG. 5). All solutions were diluted with artificial cerebral spinal fluid (aCSF). […] Euglycemic-hyperinsulinemic clamps in conscious, unrestrained, catheterized mice were performed for 90 min as previously described (Obici et al., 2003; Liu et al., 1998).
Selective hepatic branch vagotomy. One week before the clamp procedure a subgroup of rats underwent selective hepatic vagotomy (HV) or sham operation (SHAM). Anatomical nerve transactions was verified in each rat at sacrifice by microscopic observation of the absence of vagal nerve fibers in between the two silk sutures that had been placed along the trunk at the time of transection (la Fleur et al., 2003).
Hepatic glucose fluxes. Rate of hepatic glucose fluxes was determined as described. Barzilai et al., 1997).

insulin
FFA (HV): 0.5 ± 0.1 mM | ^3H-Glucose Plasma SA (HV): 28.6 ± 1.8 dpm/nmol | ^3H-UDPglucose Liver SA (HV): 6.3 ± 0.7 dpm/nmol | ^14C-PEP (HV): 5.1 ± 1.1 dpm/nmol | ^14C-UDP glucose (HV): 5.3 ± 0.7 dpm/nmol | ^3H-Glucose Plasma SA (SHAM): 29.9 ± 2.5 dpm/nmol | ^3H-UDPglucose Liver SA (SHAM): 6.3 ± 0.9 dpm/nmol | ^14C-PEP (SHAM): 7.2 ± 1.4 dpm/nmol | ^14C-UDP glucose (SHAM): 3.8 ± 0.6 dpm/nmol | FFA (Sham): 0.6 ± 0.2 mM
